Experimental data reported in publication PMC12373796.
Read-outs that look alike come from different tables or passages of the source. No constants are given. Whether binding was seen depends on the method and setting. Binding seen in cells or lysates may run through a third protein. Some results given as binding are weak or reduced against the parent protein; the word gives no strength. For some of these results: Where a sequence is shown, tags or fusion partners need not be part of it. Blank lines part the entries; values can stand above or below the molecule they belong to.

Sequences of proteins named here, by UniProt entry; tags and fusion partners are left off.
UniProt Q99570: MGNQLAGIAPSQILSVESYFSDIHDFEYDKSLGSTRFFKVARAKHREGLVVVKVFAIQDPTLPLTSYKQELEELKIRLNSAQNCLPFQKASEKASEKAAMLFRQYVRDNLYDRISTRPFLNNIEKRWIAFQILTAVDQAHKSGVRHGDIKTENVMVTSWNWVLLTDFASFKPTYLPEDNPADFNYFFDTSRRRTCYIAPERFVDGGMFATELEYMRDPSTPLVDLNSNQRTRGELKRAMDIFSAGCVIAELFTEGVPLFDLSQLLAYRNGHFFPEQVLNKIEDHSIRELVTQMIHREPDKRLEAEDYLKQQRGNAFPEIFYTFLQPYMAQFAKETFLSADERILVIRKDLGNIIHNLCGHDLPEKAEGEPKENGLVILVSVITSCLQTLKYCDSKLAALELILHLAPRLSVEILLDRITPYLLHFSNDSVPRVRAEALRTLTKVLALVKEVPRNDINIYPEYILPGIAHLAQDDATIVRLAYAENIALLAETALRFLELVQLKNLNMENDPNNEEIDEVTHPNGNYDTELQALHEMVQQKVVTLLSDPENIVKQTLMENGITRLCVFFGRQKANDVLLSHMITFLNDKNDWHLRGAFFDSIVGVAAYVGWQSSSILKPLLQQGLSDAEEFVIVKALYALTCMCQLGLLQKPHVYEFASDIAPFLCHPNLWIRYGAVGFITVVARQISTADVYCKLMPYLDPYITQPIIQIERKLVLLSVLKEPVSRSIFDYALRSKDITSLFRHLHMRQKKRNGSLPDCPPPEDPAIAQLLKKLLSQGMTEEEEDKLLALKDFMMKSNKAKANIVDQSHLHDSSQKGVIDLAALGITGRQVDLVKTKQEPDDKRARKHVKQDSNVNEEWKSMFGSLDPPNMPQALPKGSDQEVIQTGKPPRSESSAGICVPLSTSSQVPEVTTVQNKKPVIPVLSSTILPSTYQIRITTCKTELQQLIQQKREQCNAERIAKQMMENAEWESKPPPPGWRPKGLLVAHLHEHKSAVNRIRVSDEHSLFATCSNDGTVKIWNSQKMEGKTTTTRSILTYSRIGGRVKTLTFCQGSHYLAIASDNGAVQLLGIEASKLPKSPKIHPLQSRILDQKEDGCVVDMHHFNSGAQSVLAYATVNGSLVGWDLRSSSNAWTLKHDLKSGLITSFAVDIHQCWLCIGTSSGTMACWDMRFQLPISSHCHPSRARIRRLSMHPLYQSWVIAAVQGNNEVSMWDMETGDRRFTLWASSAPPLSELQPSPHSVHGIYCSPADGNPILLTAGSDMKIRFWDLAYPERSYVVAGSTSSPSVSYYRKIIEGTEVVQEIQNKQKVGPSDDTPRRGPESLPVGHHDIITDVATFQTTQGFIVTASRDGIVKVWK
UniProt Q8NEB9: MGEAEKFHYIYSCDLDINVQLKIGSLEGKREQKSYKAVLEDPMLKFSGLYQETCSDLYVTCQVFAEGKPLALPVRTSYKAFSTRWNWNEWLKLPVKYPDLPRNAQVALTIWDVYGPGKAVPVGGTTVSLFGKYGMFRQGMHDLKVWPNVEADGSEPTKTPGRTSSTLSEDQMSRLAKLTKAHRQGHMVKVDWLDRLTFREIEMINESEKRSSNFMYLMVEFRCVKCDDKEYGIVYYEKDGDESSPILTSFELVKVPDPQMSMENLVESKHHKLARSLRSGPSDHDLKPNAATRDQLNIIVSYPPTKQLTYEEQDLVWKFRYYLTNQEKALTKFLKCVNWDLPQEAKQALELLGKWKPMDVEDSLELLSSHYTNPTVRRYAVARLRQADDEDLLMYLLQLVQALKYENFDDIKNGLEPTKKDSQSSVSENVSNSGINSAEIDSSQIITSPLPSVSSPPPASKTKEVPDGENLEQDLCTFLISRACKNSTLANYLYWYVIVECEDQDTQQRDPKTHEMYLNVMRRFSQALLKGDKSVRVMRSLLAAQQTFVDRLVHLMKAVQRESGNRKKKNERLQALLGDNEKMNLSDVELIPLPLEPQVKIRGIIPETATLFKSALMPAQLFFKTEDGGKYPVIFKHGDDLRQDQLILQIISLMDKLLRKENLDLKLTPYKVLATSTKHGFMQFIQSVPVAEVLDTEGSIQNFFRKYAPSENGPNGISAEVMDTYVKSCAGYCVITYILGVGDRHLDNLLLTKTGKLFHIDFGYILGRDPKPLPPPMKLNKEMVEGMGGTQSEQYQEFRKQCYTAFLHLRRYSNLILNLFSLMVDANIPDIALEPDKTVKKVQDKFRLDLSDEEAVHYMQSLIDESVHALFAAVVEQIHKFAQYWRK
UniProt Q14457: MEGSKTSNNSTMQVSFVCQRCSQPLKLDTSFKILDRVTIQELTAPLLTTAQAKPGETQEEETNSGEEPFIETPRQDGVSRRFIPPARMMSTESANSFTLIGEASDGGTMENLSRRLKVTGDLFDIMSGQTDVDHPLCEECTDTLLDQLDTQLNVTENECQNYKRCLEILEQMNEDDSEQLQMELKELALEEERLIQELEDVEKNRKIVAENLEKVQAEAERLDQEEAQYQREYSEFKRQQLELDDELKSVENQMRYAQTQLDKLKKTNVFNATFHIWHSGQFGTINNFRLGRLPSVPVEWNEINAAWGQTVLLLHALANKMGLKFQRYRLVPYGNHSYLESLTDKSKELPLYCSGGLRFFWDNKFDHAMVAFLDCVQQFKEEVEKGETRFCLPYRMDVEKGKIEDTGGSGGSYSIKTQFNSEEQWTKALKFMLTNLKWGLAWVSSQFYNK
UniProt P50851: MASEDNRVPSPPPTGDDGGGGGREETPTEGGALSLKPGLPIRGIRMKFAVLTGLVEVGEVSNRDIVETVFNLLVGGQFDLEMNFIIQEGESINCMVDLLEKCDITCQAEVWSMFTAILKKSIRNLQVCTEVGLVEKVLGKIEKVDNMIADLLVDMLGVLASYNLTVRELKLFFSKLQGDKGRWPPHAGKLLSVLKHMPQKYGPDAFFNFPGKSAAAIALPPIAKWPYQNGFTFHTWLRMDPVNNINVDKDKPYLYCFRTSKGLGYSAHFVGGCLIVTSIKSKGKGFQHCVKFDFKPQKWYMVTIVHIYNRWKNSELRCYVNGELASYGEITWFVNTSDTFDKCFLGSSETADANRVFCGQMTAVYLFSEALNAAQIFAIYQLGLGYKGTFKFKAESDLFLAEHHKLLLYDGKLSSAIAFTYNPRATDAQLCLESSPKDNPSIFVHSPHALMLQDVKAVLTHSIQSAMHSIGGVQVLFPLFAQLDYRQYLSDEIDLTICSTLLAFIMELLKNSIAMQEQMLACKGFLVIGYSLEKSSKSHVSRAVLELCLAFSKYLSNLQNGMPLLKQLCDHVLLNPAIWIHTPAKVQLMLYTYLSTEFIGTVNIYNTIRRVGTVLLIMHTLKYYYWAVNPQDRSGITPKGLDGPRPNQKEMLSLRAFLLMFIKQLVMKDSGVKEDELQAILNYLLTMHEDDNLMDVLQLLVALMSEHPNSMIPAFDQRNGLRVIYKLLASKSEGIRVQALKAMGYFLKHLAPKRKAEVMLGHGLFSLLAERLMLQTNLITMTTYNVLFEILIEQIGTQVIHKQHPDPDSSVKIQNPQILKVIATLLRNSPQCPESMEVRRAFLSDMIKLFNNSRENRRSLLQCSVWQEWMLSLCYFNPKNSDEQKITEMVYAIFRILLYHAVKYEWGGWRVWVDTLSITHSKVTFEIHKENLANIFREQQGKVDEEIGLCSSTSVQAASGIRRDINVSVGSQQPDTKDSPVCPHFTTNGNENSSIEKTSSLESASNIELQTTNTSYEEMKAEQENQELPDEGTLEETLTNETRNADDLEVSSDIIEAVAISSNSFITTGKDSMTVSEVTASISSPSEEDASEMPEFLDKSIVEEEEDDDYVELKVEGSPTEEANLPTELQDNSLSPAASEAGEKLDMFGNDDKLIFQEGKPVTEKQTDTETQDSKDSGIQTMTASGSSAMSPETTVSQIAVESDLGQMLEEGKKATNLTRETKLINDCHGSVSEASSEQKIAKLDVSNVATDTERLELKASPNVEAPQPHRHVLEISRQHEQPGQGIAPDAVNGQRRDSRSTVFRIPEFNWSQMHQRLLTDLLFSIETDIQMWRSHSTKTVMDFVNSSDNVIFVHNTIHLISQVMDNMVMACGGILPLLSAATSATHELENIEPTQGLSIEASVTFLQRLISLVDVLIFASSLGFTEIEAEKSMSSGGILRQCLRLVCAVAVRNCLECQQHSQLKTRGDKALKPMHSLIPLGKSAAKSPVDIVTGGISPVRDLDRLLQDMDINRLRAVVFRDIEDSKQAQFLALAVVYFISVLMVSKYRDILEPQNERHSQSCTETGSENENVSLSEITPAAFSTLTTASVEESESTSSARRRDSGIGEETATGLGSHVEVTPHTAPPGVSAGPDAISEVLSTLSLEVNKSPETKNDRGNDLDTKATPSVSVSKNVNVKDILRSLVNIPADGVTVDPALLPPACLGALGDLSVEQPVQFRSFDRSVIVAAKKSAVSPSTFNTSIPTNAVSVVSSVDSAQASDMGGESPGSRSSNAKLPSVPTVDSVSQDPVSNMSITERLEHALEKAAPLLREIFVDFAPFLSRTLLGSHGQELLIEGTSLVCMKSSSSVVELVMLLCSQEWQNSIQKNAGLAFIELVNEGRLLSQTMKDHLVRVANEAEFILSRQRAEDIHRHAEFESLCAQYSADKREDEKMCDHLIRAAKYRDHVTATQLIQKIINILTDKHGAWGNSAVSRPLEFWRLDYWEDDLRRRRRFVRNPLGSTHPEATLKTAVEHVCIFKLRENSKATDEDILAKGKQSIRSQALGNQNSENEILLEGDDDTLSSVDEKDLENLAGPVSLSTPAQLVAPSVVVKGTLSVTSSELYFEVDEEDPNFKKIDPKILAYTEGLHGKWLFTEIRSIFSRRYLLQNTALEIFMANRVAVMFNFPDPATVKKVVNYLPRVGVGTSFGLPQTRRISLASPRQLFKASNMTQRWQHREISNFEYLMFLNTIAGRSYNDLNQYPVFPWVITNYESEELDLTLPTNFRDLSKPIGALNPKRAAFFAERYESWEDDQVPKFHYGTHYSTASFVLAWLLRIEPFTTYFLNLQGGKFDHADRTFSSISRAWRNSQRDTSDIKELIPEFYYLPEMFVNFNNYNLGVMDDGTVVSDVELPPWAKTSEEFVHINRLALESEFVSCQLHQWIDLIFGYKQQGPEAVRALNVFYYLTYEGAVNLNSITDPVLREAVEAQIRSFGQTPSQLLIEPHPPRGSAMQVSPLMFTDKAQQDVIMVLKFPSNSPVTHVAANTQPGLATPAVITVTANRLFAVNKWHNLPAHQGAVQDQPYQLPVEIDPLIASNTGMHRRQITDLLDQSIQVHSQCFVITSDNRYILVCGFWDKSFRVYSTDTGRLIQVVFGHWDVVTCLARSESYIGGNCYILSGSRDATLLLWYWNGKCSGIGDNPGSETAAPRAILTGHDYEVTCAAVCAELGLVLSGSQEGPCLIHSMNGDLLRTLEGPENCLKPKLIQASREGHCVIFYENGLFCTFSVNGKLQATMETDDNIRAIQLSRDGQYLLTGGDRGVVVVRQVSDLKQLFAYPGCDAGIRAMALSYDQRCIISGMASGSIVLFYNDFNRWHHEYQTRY
UniProt Q6ZNE5: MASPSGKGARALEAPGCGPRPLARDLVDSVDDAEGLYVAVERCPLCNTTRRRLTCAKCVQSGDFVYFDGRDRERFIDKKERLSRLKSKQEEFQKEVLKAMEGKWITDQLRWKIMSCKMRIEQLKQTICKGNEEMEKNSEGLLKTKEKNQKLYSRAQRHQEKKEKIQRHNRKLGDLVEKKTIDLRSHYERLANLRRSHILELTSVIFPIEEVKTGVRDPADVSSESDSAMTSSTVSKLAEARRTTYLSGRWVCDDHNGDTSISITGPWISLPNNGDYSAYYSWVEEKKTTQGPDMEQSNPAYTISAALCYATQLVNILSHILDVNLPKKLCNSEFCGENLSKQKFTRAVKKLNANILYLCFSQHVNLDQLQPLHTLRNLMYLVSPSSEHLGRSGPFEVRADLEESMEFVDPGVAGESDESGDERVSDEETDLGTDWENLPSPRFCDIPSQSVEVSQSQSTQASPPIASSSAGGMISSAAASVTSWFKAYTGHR

Assays:
[1] = biological target: phosphoinositide 3-kinase regulatory subunit 4 (PIK3R4), endogenous (human (endogenous in HEK293T and LCL)) (UniProt Q99570); test: proximity ligation; Duolink in situ PLA on fixed (4% PFA) and permeabilised (0.1% Triton X-100) LCL cells of healthy donors and LRBA-deficient patients, resting conditions; endogenous proteins
[2] = biological target: VPS34, endogenous (human (endogenous in LCL)) (UniProt Q8NEB9); test: as above
[3] = biological target: Beclin-1, endogenous (human (endogenous in LCL)) (UniProt Q14457); test: as above
[4] = biological target: phosphoinositide 3-kinase regulatory subunit 4 (PIK3R4), endogenous (human (endogenous in HEK293T and LCL)) (UniProt Q99570); test: co-IP; endogenous proteins in WT and LRBA-KO HEK293T cells; PIK3R4 immunoprecipitated with anti-PIK3R4, Dynabeads protein G, blotted for LRBA; IP buffer 50 mM Tris-HCl pH 6.8, 150 mM NaCl, 0.2% NP-40, 1 mM EDTA
[5] = biological target: Human LRBA full-length tagged to Myc-DDK (human) (UniProt P50851); test: co-IP; HEK293T WT cells co-transfected with Myc-LRBA and the partner's plasmid; immunoprecipitation with anti-LRBA (or anti-IgG), Dynabeads protein G; blotted for PIK3R4, VPS34 or GFP; IP buffer 50 mM Tris-HCl pH 6.8, 150 mM NaCl, 0.2% NP-40, 1 mM EDTA
[6] = biological target: Human LRBA full-length tagged to Myc-DDK (human) (UniProt P50851); test: as above; remark: listed apart in the source

binding [1]: binds | binding [2]: no binding | binding [3]: no binding | binding [4]: binds
Molecule: lipopolysaccharide-responsive beige-like anchor protein (LRBA), endogenous (from UniProt P50851 1-2863)

binding [5]: binds
Molecule: His-tagged full-length PIK3R4 (from UniProt Q99570 1-1358)

binding [5]: no binding
Molecule: GFP-ATG14L (from UniProt Q6ZNE5 1-492)

binding [6]: binds
B1: GFP-FYCO1 (protein, UniProt Q9BQS8 1-1478)
chain: MASTNAESQLQRIIRDLQDAVTELSKEFQEAGEPITDDSTSLHKFSYKLEYLLQFDQKEKATLLGNKKDYWDYFCACLAKVKGANDGIRFVKSISELRTSLGKGRAFIRYSLVHQRLADTLQQCFMNTKVTSDWYYARSPFLQPKLSSDIVGQLYELTEVQFDLASRGFDLDAAWPTFARRTLTTGSSAYLWKPPSRSSSMSSLVSSYLQTQEMVSNFDLNSPLNNEALEGFDEMRLELDQLEVREKQLRERMQQLDRENQELRAAVSQQGEQLQTERERGRTAAEDNVRLTCLVAELQKQWEVTQATQNTVKELQTCLQGLELGAAEKEEDYHTALRRLESMLQPLAQELEATRDSLDKKNQHLASFPGWLAMAQQKADTASDTKGRQEPIPSDAAQEMQELGEKLQALERERTKVEEVNRQQSAQLEQLVKELQLKEDARASLERLVKEMAPLQEELSGKGQEADQLWRRLQELLAHTSSWEEELAELRREKKQQQEEKELLEQEVRSLTRQLQFLETQLAQVSQHVSDLEEQKKQLIQDKDHLSQQVGMLERLAGPPGPELPVAGEKNEALVPVNSSLQEAWGKPEEEQRGLQEAQLDDTKVQEGSQEEELRQANRELEKELQNVVGRNQLLEGKLQALQADYQALQQRESAIQGSLASLEAEQASIRHLGDQMEASLLAVRKAKEAMKAQMAEKEAILQSKEGECQQLREEVEQCQQLAEARHRELRALESQCQQQTQLIEVLTAEKGQQGVGPPTDNEARELAAQLALSQAQLEVHQGEVQRLQAQVVDLQAKMRAALDDQDKVQSQLSMAEAVLREHKTLVQQLKEQNEALNRAHVQELLQCSEREGALQEERADEAQQREEELRALQEELSQAKCSSEEAQLEHAELQEQLHRANTDTAELGIQVCALTVEKERVEEALACAVQELQDAKEAASREREGLERQVAGLQQEKESLQEKLKAAKAAAGSLPGLQAQLAQAEQRAQSLQEAAHQELNTLKFQLSAEIMDYQSRLKNAGEECKSLRGQLEEQGRQLQAAEEAVEKLKATQADMGEKLSCTSNHLAECQAAMLRKDKEGAALREDLERTQKELEKATTKIQEYYNKLCQEVTNRERNDQKMLADLDDLNRTKKYLEERLIELLRDKDALWQKSDALEFQQKLSAEERWLGDTEANHCLDCKREFSWMVRRHHCRICGRIFCYYCCNNYVLSKHGGKKERCCRACFQKLSEGPGSPDSSGSGTSQGEPSPALSPASPGPQATGGQGANTDYRPPDDAVFDIITDEELCQIQESGSSLPETPTETDSLDPNAAEQDTTSTSLTPEDTEDMPVGQDSEICLLKSGELMIKVPLTVDEIASFGEGSRELFVRSSTYSLIPITVAEAGLTISWVFSSDPKSISFSVVFQEAEDTPLDQCKVLIPTTRCNSHKENIQGQLKVRTPGIYMLIFDNTFSRFVSKKVFYHLTVDRPVIYDGSDFL
